Laboratory results reported in publication PMC8274477.
These are yes or no findings as the source states them, for the method shown. Some binding calls cover weakened binding; strength is not graded here.

Protein sequences, listed by entry. Tags and fused reporters are not part of them.
UniProt Q8NA03: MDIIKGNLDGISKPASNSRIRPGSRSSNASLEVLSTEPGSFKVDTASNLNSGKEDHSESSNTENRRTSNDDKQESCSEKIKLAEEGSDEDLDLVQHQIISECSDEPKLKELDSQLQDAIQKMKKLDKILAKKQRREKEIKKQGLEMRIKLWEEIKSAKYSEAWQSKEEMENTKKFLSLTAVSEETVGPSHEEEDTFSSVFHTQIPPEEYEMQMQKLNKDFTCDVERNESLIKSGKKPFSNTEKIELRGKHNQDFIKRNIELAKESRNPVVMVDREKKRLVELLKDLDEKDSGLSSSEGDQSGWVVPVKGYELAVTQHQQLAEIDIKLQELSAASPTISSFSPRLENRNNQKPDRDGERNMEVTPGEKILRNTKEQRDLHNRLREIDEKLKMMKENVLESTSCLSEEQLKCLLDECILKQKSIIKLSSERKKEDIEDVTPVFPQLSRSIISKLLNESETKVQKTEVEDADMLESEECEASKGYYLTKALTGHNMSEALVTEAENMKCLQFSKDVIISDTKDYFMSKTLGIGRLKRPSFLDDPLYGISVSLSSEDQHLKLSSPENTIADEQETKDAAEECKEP

What was measured:
Assay in all cases: peptide or protein array; HuProt human proteome microarray; 5 ug/5 ml biotin-labelled LUBAC or OTULIN in solution, 1 h at room temperature; Cy5-streptavidin, scanned at 635 nm; BSA as negative control; hits: Z-score >= 3 and I_(Mean_Ratio) >= 1.4; both purified
[1] = molecular target: T1, ODAM (human) (UniProt A1E959)
T1 sequence: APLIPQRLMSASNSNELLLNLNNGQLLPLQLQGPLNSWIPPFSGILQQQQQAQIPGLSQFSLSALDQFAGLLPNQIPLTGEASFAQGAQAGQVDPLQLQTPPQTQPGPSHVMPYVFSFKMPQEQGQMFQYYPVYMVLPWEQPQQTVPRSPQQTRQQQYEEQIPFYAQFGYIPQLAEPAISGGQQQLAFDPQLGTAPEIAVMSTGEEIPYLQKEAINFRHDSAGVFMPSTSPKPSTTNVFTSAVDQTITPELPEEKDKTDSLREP

[2] = molecular target: T2, DECR2 (human) (UniProt Q9NUI1)
T2 sequence: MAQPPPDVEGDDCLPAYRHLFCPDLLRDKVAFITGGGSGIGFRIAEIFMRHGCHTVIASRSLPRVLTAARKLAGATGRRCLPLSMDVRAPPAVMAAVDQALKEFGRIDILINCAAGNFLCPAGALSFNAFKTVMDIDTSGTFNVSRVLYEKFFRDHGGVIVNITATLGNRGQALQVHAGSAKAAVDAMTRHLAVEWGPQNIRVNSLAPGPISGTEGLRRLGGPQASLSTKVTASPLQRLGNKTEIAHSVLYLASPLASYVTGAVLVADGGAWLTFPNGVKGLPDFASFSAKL

[3] = molecular target: T3, SATB1 (human) (UniProt Q01826)
T3 sequence: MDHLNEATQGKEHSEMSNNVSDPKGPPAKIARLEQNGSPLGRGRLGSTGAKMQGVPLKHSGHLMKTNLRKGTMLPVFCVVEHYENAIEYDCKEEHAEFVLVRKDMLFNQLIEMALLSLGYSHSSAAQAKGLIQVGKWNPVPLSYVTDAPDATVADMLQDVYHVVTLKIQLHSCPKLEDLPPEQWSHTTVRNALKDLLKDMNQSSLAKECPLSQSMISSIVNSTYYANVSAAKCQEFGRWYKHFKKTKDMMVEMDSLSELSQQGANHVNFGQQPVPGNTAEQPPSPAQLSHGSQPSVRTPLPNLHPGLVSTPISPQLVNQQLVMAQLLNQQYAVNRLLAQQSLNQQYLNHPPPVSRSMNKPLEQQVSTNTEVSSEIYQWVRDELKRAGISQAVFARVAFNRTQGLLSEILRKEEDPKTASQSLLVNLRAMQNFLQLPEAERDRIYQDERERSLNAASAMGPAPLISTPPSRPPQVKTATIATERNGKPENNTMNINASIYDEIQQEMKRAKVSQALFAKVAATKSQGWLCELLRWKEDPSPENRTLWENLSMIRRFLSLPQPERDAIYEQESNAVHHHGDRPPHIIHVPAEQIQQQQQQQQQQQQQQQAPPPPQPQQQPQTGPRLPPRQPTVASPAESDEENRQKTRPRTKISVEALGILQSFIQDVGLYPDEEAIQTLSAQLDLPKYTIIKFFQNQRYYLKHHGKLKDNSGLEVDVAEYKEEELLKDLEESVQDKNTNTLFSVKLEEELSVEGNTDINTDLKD

[4] = molecular target: COL8A1 (human) (UniProt P27658)
[5] = molecular target: FSIP1 (human) (UniProt Q8NA03)
[6] = molecular target: T4, BLVRB (human) (UniProt P30043)
T4 sequence: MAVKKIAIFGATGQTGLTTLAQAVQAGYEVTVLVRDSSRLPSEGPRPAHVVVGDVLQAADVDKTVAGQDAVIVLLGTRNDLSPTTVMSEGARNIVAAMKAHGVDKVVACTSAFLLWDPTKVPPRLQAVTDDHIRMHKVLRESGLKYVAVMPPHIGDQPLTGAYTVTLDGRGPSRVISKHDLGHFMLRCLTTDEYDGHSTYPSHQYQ

Measured: binding

linear ubiquitin chain assembly complex (LUBAC), purified as HIS-tagged HOIP with the subunit HOIL-1, biotin-labelled (from UniProt Q96EP0 1-1072; Q9BYM8 1-510)
binds: all assays above
